At least one structure is not confirmed: it was looked up by name or label, or the drawing left a doubt.
How the values were obtained:
Stat1 = test: Western blot of interferon-mediated Stat1 activation with Jak inhibitors; assay type: cell-based; details: β- and γ-interferon (Type I and Type II IFN) signaling, SCC61 cells
Protocol: (§1) Treatment with TG and Rux inhibited β- and γ-interferon-mediated activation of Stat1 and Stat3;
(§2) Total cellular protein was extracted in radioimmunoprecipitation assay buffer with protease inhibitors added (1×PBS, 1% NP40, 0.5% sodium deoxycholate, 0.1% SDS, 1 mmol/L Na3VO4, 2 μg/mL aprotinin, 1 mmol/L phenylmethylsulfonyl fluoride). All samples were normalized by protein concentration using Bradford reagent and standard solution of bovine serum albumin (1 mg/mL). Concentration of all samples was adjusted to 1 mg/mL and equal amount of protein was loaded in each well. For total proteins, 10 μg of protein was loaded per well. Proteins were separated on 7.5%-12% SDS-PAGE (depending on molecular mass of protein) and transferred to polyvinylidene difluoride membranes (PVDF). Total proteins were detected using the rabbit or goat primary Abs. For loading control, the antibodies for actin (I-19) and glyceraldehyde-3-phosphate dehydrogenase (GAPDH; FL-335) were used. All antibodies were purchased from Santa Cruz Biotechnology. Images were quantified with ImageJ software by integration pixel values across the area of specific bands.
(§3) The effects of Jak1/2 and Jak2 inhibitors were investigated on the activation of Stat1 and Stat3 in the context of Type I and Type II IFN signaling. […]

Stat3 = test: Western blot of interferon-mediated Stat3 activation with Jak inhibitors; assay type: cell-based; details: β- and γ-interferon (Type I and Type II IFN) signaling, SCC61 cells
Protocol: as §1, §2, §3

N#CC[C@H](C1CCCC1)n1cc(-c2ncnc3[nH]ccc23)cn1 [Ruxolitinib]
phosphorylation (activation) of Stat1 (Stat1): suppressed
phosphorylation (activation) of Stat1 (Stat1; listed as Rux): inhibited
phosphorylation (activation) of Stat3 (Stat3): suppressed
phosphorylation (activation) of Stat3 (Stat3; listed as Rux): inhibited
